Source: publication PMC9021288 (Nature Communications, 2022)
Several values for one entry are separate records, joined by “and”; a condition that tells them apart may be missing. Identical values can stand only once. The source gives many values for each of these; only a part stands here.

Columns and labels:
Format in all cases: in vivo, Wistar Han rats
[1] = 7-day Maximum Tolerated Dose 1 (MTD1) rat study; conditions: for Concentration: MTD1 males, 8 h; for Liver weight: MTD1 study, individual animals
Text: (§1) See the summary of the study design in Supplementary Table 31. Nine-week-old Wistar (Crl:WI (Han)) rats were obtained from Charles River Laboratories (Domaine des Oncins, Saint-Germain-Nuelles, France). […] Animals were examined daily for any altered clinical signs, body weights, and food consumption. Blood samples were taken at different timepoints after the test item administration, and toxicokinetic exposure assessed under the defined experimental conditions and analyzed using Phoenix (version 6.4 and 1.4) (Supplementary Table 32). Measurements included hematology and clinical chemistry measurements. Animals were euthanized and necropsied at the end of the dosing period. At necropsy, major organ systems and tissues were collected and weighed and then examined for gross lesions as well as for microscopic changes.

[2] = 7-day PK toxicity rat study; parameters: unit not given here
Text: as §1

[3] = 8-day Dose Range Finding (DRF) rat study
Text: as §1

SMILES: C[C@@H](CNC(=O)[C@H](O)C(C)(C)CO)NC(=O)c1cc(F)c(F)cc1F [MMV693183]
- Concentration ([1]; Day 1, 60 mg/kg/day): 0.883 µM and 0.532 µM
- Concentration ([1]; Day 1, 200 mg/kg/day): 3.68 µM and 6.03 µM
- Concentration ([1]; Day 1, 600 mg/kg/day): 29.3 µM and 33.1 µM
- Liver weight ([1]; females, 60 mg/kg/day): 4.59 g
- Liver weight ([1]; females, 200 mg/kg/day): 6.09 g
- Liver weight ([1]; females, 600 mg/kg/day): 8.38 g and 6.99 g
- Liver weight ([1]; males, 60 mg/kg/day): 7.34 g
- Liver weight ([1]; males, 200 mg/kg/day): 9.96 g
- Liver weight ([1]; males, 600 mg/kg/day): 10.46 g
- Concentration (PK study) ([2]; Females 60 mg/kg/day, Day 1, 0.5 hr): 28000 and 28300 and 24900
- Concentration (PK study) ([2]; Females 60 mg/kg/day, Day 1, 1 hr): 17300 and 14000 and 17800
- Concentration (PK study) ([2]; Females 60 mg/kg/day, Day 1, 2 hr): 7150 and 8300 and 5530
- Concentration (PK study) ([2]; Females 60 mg/kg/day, Day 1, 4 hr): 869 and 1410 and 1270
- Concentration (PK study) ([2]; Females 60 mg/kg/day, Day 3, 0.5 hr): 26900 and 24200 and 25000
- Concentration (PK study) ([2]; Females 60 mg/kg/day, Day 3, 1 hr): 14000 and 15300 and 14600
- Concentration (PK study) ([2]; Females 60 mg/kg/day, Day 3, 2 hr): 4990 and 4170 and 4890
- Concentration (PK study) ([2]; Females 60 mg/kg/day, Day 3, 4 hr): 1990 and 1480 and 1110
- Concentration (PK study) ([2]; Females 60 mg/kg/day, Day 4, 0.5 hr): 27000 and 26700 and 22800
- Concentration (PK study) ([2]; Females 60 mg/kg/day, Day 4, 1 hr): 14000 and 17700 and 12600
- Concentration (PK study) ([2]; Females 60 mg/kg/day, Day 4, 2 hr): 4820 and 4290 and 4650
- Concentration (PK study) ([2]; Females 60 mg/kg/day, Day 4, 4 hr): 1730 and 1230 and 1460
- Concentration (PK study) ([2]; Females 60 mg/kg/day, Day 5, 0.5 hr): 26600 and 23300 and 21000
- Concentration (PK study) ([2]; Females 60 mg/kg/day, Day 5, 1 hr): 12300 and 10200 and 11700
- Concentration (PK study) ([2]; Females 60 mg/kg/day, Day 5, 2 hr): 3890 and 5880 and 4840
- Concentration (PK study) ([2]; Females 60 mg/kg/day, Day 5, 4 hr): 1590 and 1870 and 1340
- Concentration (PK study) ([2]; Females 60 mg/kg/day, Day 6, 0.5 hr): 24800 and 22900 and 20900
- Concentration (PK study) ([2]; Females 60 mg/kg/day, Day 6, 1 hr): 10500 and 9660 and 8660
- Concentration (PK study) ([2]; Females 60 mg/kg/day, Day 6, 2 hr): 4340 and 4860 and 4040
- Concentration (PK study) ([2]; Females 60 mg/kg/day, Day 6, 4 hr): 933 and 1400 and 1550
- Concentration (PK study) ([2]; Females 60 mg/kg/day, Day 7, 0.5 hr): 28500 and 26900 and 17200
- Concentration (PK study) ([2]; Females 60 mg/kg/day, Day 7, 1 hr): 13200 and 10800 and 14400
- Concentration (PK study) ([2]; Females 60 mg/kg/day, Day 7, 2 hr): 5340 and 7540 and 7930
- Concentration (PK study) ([2]; Males 60 mg/kg/day, Day 1, 2 hr): 7990 and 6920
- Concentration (PK study) ([2]; Males 60 mg/kg/day, Day 1, 24 hr): LLoQ
- Concentration (PK study) ([2]; Males 60 mg/kg/day, Day 3, 2 hr): 2390 and 3250 and 3040
- Concentration (PK study) ([2]; Males 60 mg/kg/day, Day 3, 8 hr): 510 and 258 and 323
- Concentration (PK study) ([2]; Males 60 mg/kg/day, Day 3, 24 hr): LLoQ
- Concentration (PK study) ([2]; Males 60 mg/kg/day, Day 4, 2 hr): 2880 and 1910
- Concentration (PK study) ([2]; Males 60 mg/kg/day, Day 4, 24 hr): LLoQ
- Concentration (PK study) ([2]; Males 60 mg/kg/day, Day 5, 2 hr): 1240 and 869
- Concentration (PK study) ([2]; Males 60 mg/kg/day, Day 5, 24 hr): LLoQ
- Concentration (PK study) ([2]; Males 60 mg/kg/day, Day 6, 2 hr): 803 and 925
- Concentration (PK study) ([2]; Males 60 mg/kg/day, Day 6, 24 hr): LLoQ
- Concentration (PK study) ([2]; Males 60 mg/kg/day, Day 7, 2 hr): 990 and 1000
- Concentration (PK study) ([2]; Males 60 mg/kg/day, Day 7, 4 hr): 182 and 270 and 217
- Concentration (PK study) ([2]; Males 60 mg/kg/day, Day 7, 24 hr): LLoQ
- Concentration (PK study) ([2]; Males 200 mg/kg/day, Day 1, 0.5 hr): 51700 and 68600 and 61400
- Concentration (PK study) ([2]; Males 200 mg/kg/day, Day 1, 1 hr): 75000 and 77600 and 77200
- Concentration (PK study) ([2]; Males 200 mg/kg/day, Day 1, 2 hr): 34000 and 44200 and 32100
- Concentration (PK study) ([2]; Males 200 mg/kg/day, Day 3, 0.5 hr): 19000 and 21800 and 18300
- Concentration (PK study) ([2]; Males 200 mg/kg/day, Day 3, 1 hr): 9570 and 10800 and 16900
- Concentration (PK study) ([2]; Males 200 mg/kg/day, Day 3, 4 hr): 1400 and 1390 and 1750
- Concentration (PK study) ([2]; Males 200 mg/kg/day, Day 3, 24 hr): LLoQ
- Concentration (PK study) ([2]; Males 200 mg/kg/day, Day 4, 0.5 hr): 10400 and 15700 and 14100
- Concentration (PK study) ([2]; Males 200 mg/kg/day, Day 4, 1 hr): 7140 and 5790 and 6860
- Concentration (PK study) ([2]; Males 200 mg/kg/day, Day 4, 2 hr): 2930 and 3060 and 2740
- Concentration (PK study) ([2]; Males 200 mg/kg/day, Day 4, 4 hr): 1520 and 1900 and 970
- Concentration (PK study) ([2]; Males 200 mg/kg/day, Day 4, 8 hr): 354 and 449 and 526
- Concentration (PK study) ([2]; Males 200 mg/kg/day, Day 4, 24 hr): LLoQ
- Concentration (PK study) ([2]; Males 200 mg/kg/day, Day 5, 0.5 hr): 13400 and 15300
- Concentration (PK study) ([2]; Males 200 mg/kg/day, Day 5, 1 hr): 4990 and 7470 and 6880
- Concentration (PK study) ([2]; Males 200 mg/kg/day, Day 5, 4 hr): 637 and 1100 and 721
- Concentration (PK study) ([2]; Males 200 mg/kg/day, Day 5, 24 hr): LLoQ
- Concentration (PK study) ([2]; Males 200 mg/kg/day, Day 6, 0.5 hr): 8010 and 12900 and 11500
- Concentration (PK study) ([2]; Males 200 mg/kg/day, Day 6, 4 hr): 843 and 1050 and 1160
- Concentration (PK study) ([2]; Males 200 mg/kg/day, Day 6, 24 hr): LLoQ
- Concentration (PK study) ([2]; Males 200 mg/kg/day, Day 7, 0.5 hr): 19800 and 20000 and 15100
- Concentration (PK study) ([2]; Males 200 mg/kg/day, Day 7, 4 hr): 1230 and 993 and 731
- Concentration (PK study) ([2]; Males 200 mg/kg/day, Day 7, 8 hr): 312 and 235 and 430
- Concentration (PK study) ([2]; Males 200 mg/kg/day, Day 7, 24 hr): LLoQ
- Concentration ([3]; DRF females, Day 1 (left block), 10 mg/kg/day, 1 h, 10 mg/kg/day): 1.73 µg/mL and 1.64 µg/mL and 1.6 µg/mL
- Concentration ([3]; DRF females, Day 1 (left block), 10 mg/kg/day, 4 h, 10 mg/kg/day): 0.253 µg/mL and 0.168 µg/mL and 0.193 µg/mL
- Concentration ([3]; DRF females, Day 1 (left block), 10 mg/kg/day, 8 h, 10 mg/kg/day): 0.0926 µg/mL and 0.0875 µg/mL and 0.0526 µg/mL
- Concentration ([3]; DRF females, Day 1 (left block), 10 mg/kg/day, 24 h): < 0.03 µg/mL
- Concentration ([3]; DRF females, Day 1 (left block), 30 mg/kg/day, 1 h, 30 mg/kg/day): 7.38 µg/mL and 5.25 µg/mL and 5.38 µg/mL and 5.67 µg/mL and 6.85 µg/mL and 9.14 µg/mL
- Concentration ([3]; DRF females, Day 1 (left block), 30 mg/kg/day, 4 h, 30 mg/kg/day): 0.652 µg/mL and 0.542 µg/mL and 0.741 µg/mL and 0.585 µg/mL and 0.787 µg/mL and 0.72 µg/mL
- Concentration ([3]; DRF females, Day 1 (left block), 30 mg/kg/day, 8 h, 30 mg/kg/day): 0.21 µg/mL and 0.29 µg/mL and 0.238 µg/mL and 0.241 µg/mL and 0.263 µg/mL and 0.336 µg/mL
- Concentration ([3]; DRF females, Day 1 (left block), 30 mg/kg/day, 24 h): < 0.03 µg/mL
- Concentration ([3]; DRF females, Day 1 (right block, head c13), 10 mg/kg/day, 1 h): 1.85 µg/mL and 1.66 µg/mL and 1.52 µg/mL
- Concentration ([3]; DRF females, Day 1 (right block, head c13), 10 mg/kg/day, 4 h): 0.175 µg/mL and 0.194 µg/mL and 0.126 µg/mL
- Concentration ([3]; DRF females, Day 1 (right block, head c13), 10 mg/kg/day, 24 h): < 0.03 µg/mL
- Concentration ([3]; DRF females, Day 1 (right block, head c13), 30 mg/kg/day, 1 h): 5.45 µg/mL and 5.75 µg/mL and 7.05 µg/mL and 6.53 µg/mL and 5.78 µg/mL and 5.59 µg/mL
- Concentration ([3]; DRF males, Day 1, 10 mg/kg/day, 1 h): 2.05 µg/mL and 1.82 µg/mL and 2.6 µg/mL
- Concentration ([3]; DRF males, Day 1, 10 mg/kg/day, 4 h): 0.294 µg/mL and 0.192 µg/mL and 0.232 µg/mL
- Concentration ([3]; DRF males, Day 1, 10 mg/kg/day, 8 h): 0.144 µg/mL and 0.0943 µg/mL and 0.0745 µg/mL
- Concentration ([3]; DRF males, Day 1, 10 mg/kg/day, 24 h): < 0.03 µg/mL
- Concentration ([3]; DRF males, Day 1, 30 mg/kg/day, 1 h): 5.74 µg/mL and 6.41 µg/mL and 5.8 µg/mL and 5.93 µg/mL and 5.05 µg/mL and 8.21 µg/mL
- Concentration ([3]; DRF males, Day 1, 30 mg/kg/day, 8 h): 0.62 µg/mL and 0.352 µg/mL and 0.487 µg/mL and 0.486 µg/mL and 0.475 µg/mL and 0.332 µg/mL
- Concentration ([3]; DRF males, Day 1, 30 mg/kg/day, 24 h): < 0.03 µg/mL
- Concentration ([3]; DRF males, Day 7, 10 mg/kg/day, 1 h): 1.38 µg/mL and 1.13 µg/mL and 1.75 µg/mL
- Concentration ([3]; DRF males, Day 7, 10 mg/kg/day, 8 h): 0.121 µg/mL and 0.0995 µg/mL and 0.104 µg/mL
- Concentration ([3]; DRF males, Day 7, 10 mg/kg/day, 24 h): < 0.03 µg/mL
- Concentration ([3]; DRF males, Day 7, 30 mg/kg/day, 24 h): < 0.03 µg/mL
